{"source": "PubChem BioAssay AID2685", "about": "(National Center for Advancing Translational Sciences (NCATS), 2010)", "note": "Screen size: about 320,000 compounds; about 2,100 (0.66%) were called active. This list was built around the results that the source calls inconclusive (neither active nor inactive); the mix of calls is not that of the screen. Calls follow the shape of the dose curve; as a rule, active = well fitted inhibition curve with a large enough effect in the signal ratio, with a control signal flat (not every such curve was filed as active); inconclusive = small, poorly fitted or top-dose-only effect, or effect the other way, or a change in a side signal; inactive = flat fitted curve, though single readings scatter; the % refers to the signal ratio. A potency beside an inconclusive call is a rough fit, not a confirmed value. % is scaled to controls: 0 for no effect and ±100 for the full control effect; potency is read from the fitted curve at half-maximal effect."}
{"experiment": "qHTS Assay for Lipid Storage Modulators in Drosophila S3 Cells", "settings": "BODIPY lipid droplet fluorescence, 18-24 h, cells fed with added oleic acid; lipid storage change, negative = inhibition: at 46.1 µM (top of the series) unless noted", "procedure,_shortened": "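Drosophila S3 cells got compounds at several concentrations plus oleic acid (400 uM solution). Laser-scanning cytometry with 488 nm excitation read lipid droplets at 500-530 nm and cells at 575-640 nm. Percent activity was relative to 20 uM Triacsin C.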"}
{"smiles": "O=C(N/N=C/C=C\\c1ccccc1)c1cnccn1", "lipid storage change, negative = inhibition": "inconclusive: 4.5%"}
{"smiles": "COc1ccc2cc(C(=O)C3CCCN(C(=O)c4sc(C)nc4C)C3)ccc2c1", "note": "(stereo not drawn)", "Potency": "inconclusive: 0.651 µM [activator, partial curve, poor fit]"}
{"smiles": "CCOc1ccc(NC(=O)c2cc(S(=O)(=O)N3CCCCC3)c[nH]2)cc1", "lipid storage change, negative = inhibition": "inconclusive: -32.9%"}
{"smiles": "COc1ccc(NC(=O)CSc2ccc3nnc(-c4cccnc4)n3n2)cc1OC", "lipid storage change, negative = inhibition": "inconclusive: -0.752%"}
{"smiles": "NC(=O)C1CCN(C(c2ccccc2F)c2nnnn2Cc2ccco2)CC1", "note": "(stereo not drawn)", "lipid storage change, negative = inhibition": "inconclusive: -4.25%"}
{"smiles": "N/C(=N\\OC(=O)COc1ccc2ccccc2c1Br)c1ccncc1", "lipid storage change, negative = inhibition": "inconclusive: 6.49%"}
{"smiles": "CC1(C)C(=O)OC(c2cc(Br)ccc2O)C(C)(C)C1=O", "note": "(stereo not drawn)", "lipid storage change, negative = inhibition": "inconclusive: -13.7%"}
{"smiles": "Nc1cc(=O)nc(SCC(=O)Nc2ccccc2)n1-c1ccccc1", "lipid storage change, negative = inhibition": "inconclusive: 8.42%"}
{"smiles": "CCOC(=O)c1cc(-c2ccccc2)sc1NC(=O)C(C)Sc1nnc(C)s1", "note": "(stereo not drawn)", "Potency": "inconclusive: 23.1 µM [falling, single point]"}
{"smiles": "O=c1c2c(nc3nc(NCc4ccc(Cl)cc4)[nH]n13)CCC2", "lipid storage change, negative = inhibition": "inconclusive: -39.3%"}
{"smiles": "Cc1cc(NC(=O)c2ccccc2)nc2c1c(=O)oc1ccccc12", "lipid storage change, negative = inhibition": "inconclusive: 5.71%"}
{"smiles": "COc1ccc(CS(=O)(=O)c2nc(C)cc(C)c2S(C)(=O)=O)cc1", "lipid storage change, negative = inhibition": "inconclusive: -27.7%"}
{"smiles": "COc1ccc(NC(=S)NCc2cccn2C)cc1", "lipid storage change, negative = inhibition": "inconclusive: -7.21% [at 9.22 µM]"}
{"smiles": "CC(=O)c1sc2nsc(SCCN3CCCCC3)c2c1N", "lipid storage change, negative = inhibition": "inactive: -3.85%"}
{"smiles": "COc1ccc(/C=C2/Sc3ccc(C(=O)NCCN4CCCCCC4)cc3NC2=O)cc1", "Potency": "inconclusive: 6.51 µM [activator, single point]"}
{"smiles": "CSc1ccc(NC(=O)N2CCN(c3nc4ccccc4s3)CC2)cc1", "outcome": "inactive [at 46.1 µM]"}
{"smiles": "CCCc1nc2nc(C)c(NS(=O)(=O)c3ccc(C4CCCCC4)cc3)c(=O)n2[nH]1", "Potency": "inconclusive: 29.1 µM [activator, single point]"}
{"smiles": "CCn1c(SCC(=O)N2CCc3ccccc32)nnc1-c1ccncc1", "lipid storage change, negative = inhibition": "inconclusive: -27.4%"}
{"smiles": "O=C(COc1ccc(Cl)cc1)Nc1cc2c3c(c1)CC(=O)N3CCC2", "Potency": "inconclusive: 9.2 µM [activator, partial curve]"}
{"smiles": "Cc1cc(NCCN2CCCCC2)n2c(nc3ccccc32)c1C#N", "lipid storage change, negative = inhibition": "inconclusive: 21.1%"}
{"smiles": "CCn1c(=N)n(CC(O)c2cccs2)c2ccccc21", "note": "(stereo not drawn)", "lipid storage change, negative = inhibition": "inconclusive: 12.6%"}
{"smiles": "Cc1cc(C)n2nc(-c3ccc(F)cc3)nc2n1", "lipid storage change, negative = inhibition": "inconclusive: -28.7%"}
{"smiles": "CNC(=S)/N=C(/Nc1ccccc1)c1ccccc1", "lipid storage change, negative = inhibition": "inconclusive: -7.75%"}
{"smiles": "CNC(=O)CSc1nnc(-c2cccs2)o1", "Potency": "inconclusive: 2.59 µM [activator, single point]"}
{"smiles": "COc1cccc(OC)c1C(=O)N1CCN(Cc2ccncc2)CC1", "lipid storage change, negative = inhibition": "inconclusive: 33.9%"}
{"smiles": "C/C(=N\\N(C)C)C1=C(O)c2ccccc2C1=O", "lipid storage change, negative = inhibition": "inconclusive: 23.4%"}
{"smiles": "ONC(=Nc1ccccc1)c1ccc(Cl)cc1", "lipid storage change, negative = inhibition": "inconclusive: 12.5%"}
{"smiles": "Cc1ccc(C)c(-n2c(-c3csc(C)c3C)n[nH]c2=S)c1", "Potency": "inconclusive: 6.51 µM [activator, full curve, poor fit]"}
{"smiles": "O=C(OCc1nc2ccccc2[n+]([O-])c1C(=O)c1ccccc1)c1ccco1", "lipid storage change, negative = inhibition": "inconclusive: 11%"}
{"smiles": "CC(=O)CSc1ncnc2c1oc1ccccc12", "lipid storage change, negative = inhibition": "inconclusive: -57.3%"}
{"smiles": "Cc1ccc(N(Cc2cc3ccccc3[nH]c2=O)C(=O)c2ccco2)c(C)c1", "Potency": "inconclusive: 0.461 µM [activator, single point]"}
{"smiles": "CN(Cc1nccn1C)C(=O)C1CCC(=O)N(CCc2ccc(Cl)cc2)C1", "note": "(stereo not drawn)", "lipid storage change, negative = inhibition": "inconclusive: 76.7%"}
{"smiles": "CCCCOc1ccc(C(=O)N/C(=C/C=C/c2ccccc2)C(=O)NCCCO)cc1", "lipid storage change, negative = inhibition": "inconclusive: 27.5%"}
{"smiles": "COc1cc(/C=N/n2c(C)nc3ccccc3c2=O)cc(OC)c1O", "lipid storage change, negative = inhibition": "inconclusive: 15.6%"}
{"smiles": "Cc1nc(-c2ccc(Cl)cc2)sc1C1(C)CC(c2cccc(Cl)c2)=NO1", "note": "(stereo not drawn)", "Potency": "inconclusive: 10.3 µM [activator, partial curve]"}
{"smiles": "OCC[C@H]1C[C@@H](O)[C@H](O)[C@]2(CCCc3ccccc3O2)O1", "Potency": "inconclusive: 29.1 µM [falling, single point]"}
{"smiles": "CCCCNC(=O)c1onc(CSc2ccncc2)c1C(=O)NCCCC", "lipid storage change, negative = inhibition": "inconclusive: 11.3%"}
{"smiles": "Cc1ccccc1NC(=O)c1csc2c1CCCC2", "lipid storage change, negative = inhibition": "inconclusive: 55.9%"}
{"smiles": "CSc1nc2[nH]ncc2c(=O)[nH]1", "lipid storage change, negative = inhibition": "inconclusive: 4.51%"}
{"smiles": "CCn1nc(C)c(CN2CCC(C(=O)Nc3cccc(-c4cccc(Cl)c4)c3)CC2)c1C", "Potency": "inconclusive: 1.3 µM [activator, partial curve]"}
{"smiles": "CCN(C(=O)CN1C(=O)NC2(CCc3ccccc32)C1=O)C1CCCCC1", "note": "(stereo not drawn)", "lipid storage change, negative = inhibition": "inconclusive"}
{"smiles": "O=C(CSc1ncccc1-c1nc2ccccc2[nH]1)N1CCc2ccccc21", "Potency": "inconclusive: 0.92 µM [activator, full curve]"}
{"smiles": "O=C(Nc1cccc(S(=O)(=O)NC2=NCCC2)c1)C1CCCCC1", "lipid storage change, negative = inhibition": "inconclusive: 8.35%"}
{"smiles": "Cc1cc(Cl)ccc1OCC(=O)Nc1nc(-c2cccs2)cs1", "lipid storage change, negative = inhibition": "inconclusive: 9.07%"}
{"smiles": "CCN(CCO)C(=O)C12CCC(C)(C(=O)C1)C2(C)C", "note": "(stereo not drawn)", "lipid storage change, negative = inhibition": "inconclusive: -11.2%"}
{"smiles": "Cc1ccc2c(CN3CCCCC3CCO)cc(=O)oc2c1", "note": "(stereo not drawn)", "lipid storage change, negative = inhibition": "inconclusive: -106%"}
{"smiles": "N#CC(=C=[N-])c1nc2ccccc2nc1-[n+]1cccc(NC(=O)c2ccccc2)c1", "lipid storage change, negative = inhibition": "inconclusive: -23.3%"}
{"smiles": "COc1cc(/C=C/C(=O)OCC(=O)N2CC3(C)CC2CC(C)(C)C3)ccc1O", "note": "(stereo not drawn)", "Potency": "active: 0.651 µM"}
{"smiles": "COCCCNC(=O)c1cccs1", "outcome": "inactive [at 46.1 µM]"}
{"smiles": "Cc1ccc(C(=O)N/C(=C\\c2ccco2)C(=O)NC2CCS(=O)(=O)C2)cc1", "note": "(stereo not drawn)", "lipid storage change, negative = inhibition": "inconclusive: 9.09%"}
{"smiles": "CCCc1nnc(NC(=O)Cn2c(=O)oc3ccccc32)s1", "lipid storage change, negative = inhibition": "inconclusive: 32.7%"}
{"smiles": "COc1cccc(OC)c1C(=O)Nc1cccnc1", "lipid storage change, negative = inhibition": "inconclusive: -16.2%"}
{"smiles": "COc1cccc(OC)c1C(=O)NC(=S)N1CCOCC1", "Potency": "inconclusive: 29.1 µM [activator, single point]"}
{"smiles": "Cc1ccc(S(=O)(=O)N2CCN(C(=O)CSc3nc4ccccc4o3)C2)cc1", "lipid storage change, negative = inhibition": "inconclusive: -13.9%"}
{"smiles": "COc1ccc(C2=NS(=O)(=O)N(C)C(C(=O)NCc3ccccc3)=C2)cc1OC", "lipid storage change, negative = inhibition": "inconclusive: -40.3%"}
{"smiles": "O=C(Nc1nccs1)c1cc(S(=O)(=O)N2CCOCC2)ccc1Cl", "lipid storage change, negative = inhibition": "inconclusive: 65.9%"}
{"smiles": "O=C1CC(C(=O)Nc2cccc(Cl)c2)n2ncnc2N1", "note": "(stereo not drawn)", "lipid storage change, negative = inhibition": "inconclusive: -42.9%"}
{"smiles": "N#CC1=C2SCC(O)(c3ccccc3)N2C(=O)CC1c1ccccc1", "note": "(stereo not drawn)", "lipid storage change, negative = inhibition": "inconclusive: -5.73%"}
{"smiles": "CCOc1ccc2[nH]c(=O)c(C(c3nnnn3C3CCCCC3)N3CCN(C)CC3)cc2c1", "note": "(stereo not drawn)", "lipid storage change, negative = inhibition": "inconclusive: 29.5%"}
{"smiles": "COC(C)(C)[C@@H](O)COc1c2ccoc2cc2oc(=O)ccc12", "Potency": "inconclusive: 0.651 µM [activator, full curve, poor fit]"}
{"smiles": "O=C(NC1CCCCC1)N1CCC(n2cnc3ccccc32)CC1", "lipid storage change, negative = inhibition": "inconclusive: -5.75%"}
{"smiles": "COc1ccc(C(=O)N2CCN(c3ccccc3)CC2)cc1S(=O)(=O)N1CCOCC1", "Potency": "active: 3.26 µM"}
{"smiles": "Cc1cc(C)c(NC(=O)CSc2nc(COc3ccccc3)nc3ccccc23)c(C)c1", "lipid storage change, negative = inhibition": "inconclusive: -0.211%"}
{"smiles": "COc1ccccc1OCCNc1cc(N2CCOCC2)ccc1[N+](=O)[O-]", "lipid storage change, negative = inhibition": "inconclusive: 19.9%"}
{"smiles": "COCC(=O)Nc1ccc(N2CCN(c3ccccc3)CC2)c(F)c1", "lipid storage change, negative = inhibition": "inconclusive: -55.5%"}
{"smiles": "CCCn1nnc(NC(=O)c2ccc(-c3cc(Cl)ccc3Cl)o2)n1", "lipid storage change, negative = inhibition": "inconclusive: -19.5%"}
{"smiles": "O=C1C=C(c2ccc(Cl)cc2)OC2(CCCC2)O1", "lipid storage change, negative = inhibition": "inconclusive: -25.5%"}
{"smiles": "CC1=NN(C(=O)c2ccc(Cn3cc([N+](=O)[O-])cn3)cc2)C(O)(C(F)(F)F)C1", "note": "(stereo not drawn)", "lipid storage change, negative = inhibition": "inconclusive: 8.79%"}
{"smiles": "COc1ccc(C(=O)Nc2ccccn2)cc1", "lipid storage change, negative = inhibition": "inconclusive: 2.37%"}
{"smiles": "Nc1ccc(S(N)(=O)=O)cc1N", "lipid storage change, negative = inhibition": "inconclusive: -0.3%"}
{"smiles": "O=C(NCCc1ccccc1Cl)c1ccc2nc3ccccc3c(=O)n2c1", "lipid storage change, negative = inhibition": "inconclusive: -14.1%"}
{"smiles": "O=C(NC1CC1)C1CCCN1S(=O)(=O)c1ccc2ccccc2c1", "note": "(stereo not drawn)", "lipid storage change, negative = inhibition": "inconclusive: 23.2%"}
{"smiles": "O=C(Cn1c(=O)oc2cc(S(=O)(=O)NCc3ccccc3)ccc21)N1CCCC1", "lipid storage change, negative = inhibition": "inconclusive: 5.74%"}
{"smiles": "C=CCOC(=O)C1=C(C)NC(=O)NC1C1CC=CCC1", "note": "(stereo not drawn)", "lipid storage change, negative = inhibition": "inconclusive: -17.9%"}
{"smiles": "Cc1[nH]c2ccc(S(N)(=O)=O)cc2c1C", "Potency": "inconclusive: 2.59 µM [activator, partial curve]"}
{"smiles": "CCCn1nc(NC(=O)C(C)(C)C)c2cc3cc(OC)ccc3nc21", "Potency": "inconclusive: 29.1 µM [activator, single point]"}
{"smiles": "NCC(c1ccccc1Cl)c1c[nH]c2ccccc12", "note": "(stereo not drawn)", "Potency": "inconclusive: 29.1 µM [activator, single point]"}
{"smiles": "Cn1[nH]c(=O)c(Cl)c(Cl)c1=O", "lipid storage change, negative = inhibition": "inconclusive: -183%"}
{"smiles": "CCCCn1c(N)c(N(Cc2ccccc2OC)C(=O)COc2cc(C)ccc2Cl)c(=O)[nH]c1=O", "lipid storage change, negative = inhibition": "inconclusive"}
{"smiles": "FC(F)(F)c1cccc(Nc2nc(N3CCOCC3)nc(N3CCOCC3)n2)c1", "lipid storage change, negative = inhibition": "inconclusive: 9.97%"}
{"smiles": "Cc1ccc(NCc2nnc(SCC(=O)c3ccccc3)n2Cc2ccco2)c(C)c1", "Potency": "inconclusive: 2.31 µM [activator, partial curve]"}
{"smiles": "O=S(=O)(NCc1ccccc1)c1ccc(F)cc1Br", "lipid storage change, negative = inhibition": "inconclusive: 13.2%"}
{"smiles": "COc1ccc(NC(=O)c2cc(Br)c(Br)s2)cn1", "lipid storage change, negative = inhibition": "inconclusive: 4.82%"}
